Measurements: patent US20110294740A1
These are yes or no findings as the source states them, for the method shown. Binding seen in cells or lysates may run through a third protein. Some results given as binding are weak or reduced against the parent protein; the word gives no strength.

Amino acid sequences for entries named in this document (tags omitted). Residues count along the entry.
UniProt P05067, residues 672-713: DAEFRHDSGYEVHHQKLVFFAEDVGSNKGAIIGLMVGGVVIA

Legend:
wild-type Aβ42 peptide [1] = target: wild-type Aβ42 peptide (UniProt P05067); test: co-immunoprecipitation with an anti-MBP mAb
wild-type Aβ42 peptide [2] = target: wild-type Aβ42 peptide (UniProt P05067); test: co-immunoprecipitation with anti-MBP mAb 382, blot with biotinylated mAb 3D6 (Aβ) and mAb 384 (MBP)

binding (wild-type Aβ42 peptide [1]): binds | binding (wild-type Aβ42 peptide [2]): binds
Substance: myelin basic protein (purified MBP) (from UniProt P02686 2-171)
